# From the supplement of paper PMC8728848
# Some of the results follow.
# B1: LlpB (Pseudomonas fluorescens) (protein)
# chain: MGSSHHHHHHSSGLVPRGSHMASSGFRIILFNSANNGTAILPPRNCLVAGQYLESPSKRYKLILEADGNLRLYDNGVPIWVADSSVPYTYVDNRPNTNLVTCFYMQGSAFLVDRVGSRTWATIGDWIDGAADRAYLQVQDDGNVVVVDGVPRWARFGFTPAALPNRGVFYPDHGTGPLPSFPVWSWTF
# Key:
# Test in all cases: glycan array binding signal (z-score within array); higher = stronger binding
# Conditions in all cases: glycan notation: IUPAC condensed, linker removed
# [1] = biological target: Fuc(a1-2)Gal6S(b1-3)GlcNAc6S
# Method in brief: (§1)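 The binding signal is a Z-score computed within each array. Data were drawn from 3228 arrays in the Consortium for Functional Glycomics database, restricted to those with a known protein sequence. Scores were averaged over arrays of the same protein sequence at different concentrations or buffers, and over linkers, and negative values can be taken as non-binding.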
# Fuc(a1-2)Gal6S(b1-4)Glc = biological target: Fuc(a1-2)Gal6S(b1-4)Glc
# Method in brief: as §1
# [2] = biological target: Fuc(a1-2)Gal6S(b1-4)Glc6S
# Method in brief: as §1
# Fuc(a1-2)[Gal(a1-3)]Gal = biological target: Fuc(a1-2)[Gal(a1-3)]Gal
# Method in brief: as §1
# [3] = biological target: Fuc(a1-2)[Gal(a1-3)]Gal(b1-3)GalNAc
# Method in brief: as §1
# [4] = biological target: Fuc(a1-2)[Gal(a1-3)]Gal(b1-3)GalNAc(b1-3)Gal(a1-4)Gal(b1-4)Glc
# Method in brief: as §1
# [5] = biological target: Fuc(a1-2)[Gal(a1-3)]Gal(b1-3)GlcNAc
# Method in brief: as §1
# [6] = biological target: Fuc(a1-2)[Gal(a1-3)]Gal(b1-3)GlcNAc(b1-2)Man(a1-3)[Fuc(a1-2)[Gal(a1-3)]Gal(b1-3)GlcNAc(b1-2)Man(a1-6)]Man(b1-4)GlcNAc(b1-4)GlcNAc
# Method in brief: as §1
# [7] = biological target: Fuc(a1-2)[Gal(a1-3)]Gal(b1-3)GlcNAc(b1-2)Man(a1-3)[Fuc(a1-2)[Gal(a1-3)]Gal(b1-3)GlcNAc(b1-2)Man(a1-6)]Man(b1-4)GlcNAc(b1-4)[Fuc(a1-6)]GlcNAc
# Method in brief: as §1
# [8] = biological target: Fuc(a1-2)[Gal(a1-3)]Gal(b1-3)GlcNAc(b1-3)GalNAc
# Method in brief: as §1
# [9] = biological target: Fuc(a1-2)[Gal(a1-3)]Gal(b1-3)GlcNAc(b1-6)GalNAc
# Method in brief: as §1
# [10] = biological target: Fuc(a1-2)[Gal(a1-3)]Gal(b1-4)Glc
# Method in brief: as §1
# [11] = biological target: Fuc(a1-2)[Gal(a1-3)]Gal(b1-4)GlcNAc
# Method in brief: as §1
# [12] = biological target: Fuc(a1-2)[Gal(a1-3)]Gal(b1-4)GlcNAc(b1-2)Man
# Method in brief: as §1
# [13] = biological target: Fuc(a1-2)[Gal(a1-3)]Gal(b1-4)GlcNAc(b1-2)Man(a1-3)[Fuc(a1-2)[Gal(a1-3)]Gal(b1-4)GlcNAc(b1-2)Man(a1-6)]Man(b1-4)GlcNAc(b1-4)GlcNAc
# Method in brief: as §1
# [14] = biological target: Fuc(a1-2)[Gal(a1-3)]Gal(b1-4)GlcNAc(b1-2)Man(a1-3)[Fuc(a1-2)[Gal(a1-3)]Gal(b1-4)GlcNAc(b1-2)Man(a1-6)]Man(b1-4)GlcNAc(b1-4)[Fuc(a1-6)]GlcNAc
# Method in brief: as §1
# [15] = biological target: Fuc(a1-2)[Gal(a1-3)]Gal(b1-4)GlcNAc(b1-3)GalNAc
# Method in brief: as §1
# [16] = biological target: Fuc(a1-2)[Gal(a1-3)]Gal(b1-4)GlcNAc(b1-3)[Fuc(a1-2)[Gal(a1-3)]Gal(b1-4)GlcNAc(b1-6)]GalNAc
# Method in brief: as §1
# [17] = biological target: Fuc(a1-2)[Gal(a1-3)]Gal(b1-4)GlcNAc(b1-6)GalNAc
# Method in brief: as §1
# [18] = biological target: Fuc(a1-2)[Gal(a1-3)]Gal(b1-4)[Fuc(a1-3)]Glc
# Method in brief: as §1
# [19] = biological target: Fuc(a1-2)[Gal(a1-3)]Gal(b1-4)[Fuc(a1-3)]GlcNAc
# Method in brief: as §1
# [20] = biological target: Fuc(a1-2)[Gal(a1-3)]Gal(b1-4)[Fuc(a1-3)]GlcNAc(b1-3)GalNAc
# Method in brief: as §1
# [21] = biological target: Fuc(a1-2)[Gal(a1-4)]Gal(b1-4)GlcNAc
# Method in brief: as §1
# [22] = biological target: Fuc(a1-2)[GalNAc(a1-3)]Gal
# Method in brief: as §1
# [23] = biological target: Fuc(a1-2)[GalNAc(a1-3)]Gal(b1-3)GalNAc(a1-3)[Fuc(a1-2)]Gal(b1-4)GlcNAc
# Method in brief: as §1
# [24] = biological target: Fuc(a1-2)[GalNAc(a1-3)]Gal(b1-3)GalNAc(b1-3)Gal(a1-4)Gal(b1-4)Glc
# Method in brief: as §1
# [25] = biological target: Fuc(a1-2)[GalNAc(a1-3)]Gal(b1-3)GlcNAc
# Method in brief: as §1
# [26] = biological target: Fuc(a1-2)[GalNAc(a1-3)]Gal(b1-3)GlcNAc(b1-2)Man(a1-3)[Fuc(a1-2)[GalNAc(a1-3)]Gal(b1-3)GlcNAc(b1-2)Man(a1-6)]Man(b1-4)GlcNAc(b1-4)GlcNAc
# Method in brief: as §1
# [27] = biological target: Fuc(a1-2)[GalNAc(a1-3)]Gal(b1-3)GlcNAc(b1-2)Man(a1-3)[Fuc(a1-2)[GalNAc(a1-3)]Gal(b1-3)GlcNAc(b1-2)Man(a1-6)]Man(b1-4)GlcNAc(b1-4)[Fuc(a1-6)]GlcNAc
# Method in brief: as §1
# [28] = biological target: Fuc(a1-2)[GalNAc(a1-3)]Gal(b1-3)GlcNAc(b1-3)GalNAc
# Method in brief: as §1
# [29] = biological target: Fuc(a1-2)[GalNAc(a1-3)]Gal(b1-3)GlcNAc(b1-6)GalNAc
# Method in brief: as §1
# [30] = biological target: Fuc(a1-2)[GalNAc(a1-3)]Gal(b1-4)Glc
# Method in brief: as §1
# [31] = biological target: Fuc(a1-2)[GalNAc(a1-3)]Gal(b1-4)GlcNAc
# Method in brief: as §1
# [32] = biological target: Fuc(a1-2)[GalNAc(a1-3)]Gal(b1-4)GlcNAc(b1-2)Man
# Method in brief: as §1
# [33] = biological target: Fuc(a1-2)[GalNAc(a1-3)]Gal(b1-4)GlcNAc(b1-2)Man(a1-3)[Fuc(a1-2)[GalNAc(a1-3)]Gal(b1-4)GlcNAc(b1-2)Man(a1-6)]Man(b1-4)GlcNAc(b1-4)GlcNAc
# Method in brief: as §1
# [34] = biological target: Fuc(a1-2)[GalNAc(a1-3)]Gal(b1-4)GlcNAc(b1-2)Man(a1-3)[Fuc(a1-2)[GalNAc(a1-3)]Gal(b1-4)GlcNAc(b1-2)Man(a1-6)]Man(b1-4)GlcNAc(b1-4)[Fuc(a1-6)]GlcNAc
# Method in brief: as §1
# [35] = biological target: Fuc(a1-2)[GalNAc(a1-3)]Gal(b1-4)GlcNAc(b1-3)Gal(b1-4)GlcNAc
# Method in brief: as §1
# [36] = biological target: Fuc(a1-2)[GalNAc(a1-3)]Gal(b1-4)GlcNAc(b1-3)Gal(b1-4)GlcNAc(b1-3)Gal(b1-4)GlcNAc
# Method in brief: as §1
# [37] = biological target: Fuc(a1-2)[GalNAc(a1-3)]Gal(b1-4)GlcNAc(b1-3)GalNAc
# Method in brief: as §1
# [38] = biological target: Fuc(a1-2)[GalNAc(a1-3)]Gal(b1-4)GlcNAc(b1-3)[Fuc(a1-2)[GalNAc(a1-3)]Gal(b1-4)GlcNAc(b1-6)]GalNAc
# Method in brief: as §1
# [39] = biological target: Fuc(a1-2)[GalNAc(a1-3)]Gal(b1-4)GlcNAc(b1-6)GalNAc
# Method in brief: as §1
# [40] = biological target: Fuc(a1-2)[GalNAc(a1-3)]Gal(b1-4)[Fuc(a1-3)]GlcNAc
# Method in brief: as §1
# [41] = biological target: Fuc(a1-2)[GalNAc(a1-3)]Gal(b1-4)[Fuc(a1-3)]GlcNAc(b1-3)GalNAc
# Method in brief: as §1
# [42] = biological target: Fuc(a1-2)[GalNAc(a1-4)]Gal(b1-4)GlcNAc
# Method in brief: as §1
# [43] = biological target: Fuc(a1-2)[GalNAc(b1-3)]Gal
# Method in brief: as §1
binder,measurement,setting,value
B1,glycan array binding signal (z-score),[1],-0.179
same,glycan array binding signal (z-score),Fuc(a1-2)Gal6S(b1-4)Glc,-1.77
same,glycan array binding signal (z-score),[2],0.007
same,glycan array binding signal (z-score),Fuc(a1-2)[Gal(a1-3)]Gal,0.062
same,glycan array binding signal (z-score),[3],1.28
same,glycan array binding signal (z-score),[4],-0.974
same,glycan array binding signal (z-score),[5],-0.51
same,glycan array binding signal (z-score),[6],0.022
same,glycan array binding signal (z-score),[7],-0.218
same,glycan array binding signal (z-score),[8],-1.03
same,glycan array binding signal (z-score),[9],-0.511
same,glycan array binding signal (z-score),[10],-1.17
same,glycan array binding signal (z-score),[11],0.037
same,glycan array binding signal (z-score),[12],0.961
same,glycan array binding signal (z-score),[13],0.397
same,glycan array binding signal (z-score),[14],-0.643
same,glycan array binding signal (z-score),[15],-1.23
same,glycan array binding signal (z-score),[16],0.507
same,glycan array binding signal (z-score),[17],0.491
same,glycan array binding signal (z-score),[18],-1.18
same,glycan array binding signal (z-score),[19],0.244
same,glycan array binding signal (z-score),[20],-0.915
same,glycan array binding signal (z-score),[21],1.47
same,glycan array binding signal (z-score),[22],0.524
same,glycan array binding signal (z-score),[23],-0.416
same,glycan array binding signal (z-score),[24],-0.872
same,glycan array binding signal (z-score),[25],-0.102
same,glycan array binding signal (z-score),[26],1.25
same,glycan array binding signal (z-score),[27],-0.697
same,glycan array binding signal (z-score),[28],-0.108
same,glycan array binding signal (z-score),[29],-0.658
same,glycan array binding signal (z-score),[30],-0.54
same,glycan array binding signal (z-score),[31],0.119
same,glycan array binding signal (z-score),[32],-0.974
same,glycan array binding signal (z-score),[33],-0.94
same,glycan array binding signal (z-score),[34],-0.872
same,glycan array binding signal (z-score),[35],-0.594
same,glycan array binding signal (z-score),[36],0.192
same,glycan array binding signal (z-score),[37],-1.58
same,glycan array binding signal (z-score),[38],-1.02
same,glycan array binding signal (z-score),[39],-0.874
same,glycan array binding signal (z-score),[40],0.73
same,glycan array binding signal (z-score),[41],0.076
same,glycan array binding signal (z-score),[42],-0.099
same,glycan array binding signal (z-score),[43],1.75

# 2 records picked at random from the list so far, as already listed:
binder,measurement,setting,value
B1,glycan array binding signal (z-score),[43],1.75
same,glycan array binding signal (z-score),[25],-0.102
